Source: paper PMC7060348
Results are given in words; binding and its absence hold for the method and conditions named. Binding seen in cells or lysates may run through a third protein. Some binding calls cover weakened binding; strength is not graded here. For some assays here: Sequences can lack the tags named with a protein.

Chains of the proteins cited; added tags and fusions are not shown.
UniProt Q09472: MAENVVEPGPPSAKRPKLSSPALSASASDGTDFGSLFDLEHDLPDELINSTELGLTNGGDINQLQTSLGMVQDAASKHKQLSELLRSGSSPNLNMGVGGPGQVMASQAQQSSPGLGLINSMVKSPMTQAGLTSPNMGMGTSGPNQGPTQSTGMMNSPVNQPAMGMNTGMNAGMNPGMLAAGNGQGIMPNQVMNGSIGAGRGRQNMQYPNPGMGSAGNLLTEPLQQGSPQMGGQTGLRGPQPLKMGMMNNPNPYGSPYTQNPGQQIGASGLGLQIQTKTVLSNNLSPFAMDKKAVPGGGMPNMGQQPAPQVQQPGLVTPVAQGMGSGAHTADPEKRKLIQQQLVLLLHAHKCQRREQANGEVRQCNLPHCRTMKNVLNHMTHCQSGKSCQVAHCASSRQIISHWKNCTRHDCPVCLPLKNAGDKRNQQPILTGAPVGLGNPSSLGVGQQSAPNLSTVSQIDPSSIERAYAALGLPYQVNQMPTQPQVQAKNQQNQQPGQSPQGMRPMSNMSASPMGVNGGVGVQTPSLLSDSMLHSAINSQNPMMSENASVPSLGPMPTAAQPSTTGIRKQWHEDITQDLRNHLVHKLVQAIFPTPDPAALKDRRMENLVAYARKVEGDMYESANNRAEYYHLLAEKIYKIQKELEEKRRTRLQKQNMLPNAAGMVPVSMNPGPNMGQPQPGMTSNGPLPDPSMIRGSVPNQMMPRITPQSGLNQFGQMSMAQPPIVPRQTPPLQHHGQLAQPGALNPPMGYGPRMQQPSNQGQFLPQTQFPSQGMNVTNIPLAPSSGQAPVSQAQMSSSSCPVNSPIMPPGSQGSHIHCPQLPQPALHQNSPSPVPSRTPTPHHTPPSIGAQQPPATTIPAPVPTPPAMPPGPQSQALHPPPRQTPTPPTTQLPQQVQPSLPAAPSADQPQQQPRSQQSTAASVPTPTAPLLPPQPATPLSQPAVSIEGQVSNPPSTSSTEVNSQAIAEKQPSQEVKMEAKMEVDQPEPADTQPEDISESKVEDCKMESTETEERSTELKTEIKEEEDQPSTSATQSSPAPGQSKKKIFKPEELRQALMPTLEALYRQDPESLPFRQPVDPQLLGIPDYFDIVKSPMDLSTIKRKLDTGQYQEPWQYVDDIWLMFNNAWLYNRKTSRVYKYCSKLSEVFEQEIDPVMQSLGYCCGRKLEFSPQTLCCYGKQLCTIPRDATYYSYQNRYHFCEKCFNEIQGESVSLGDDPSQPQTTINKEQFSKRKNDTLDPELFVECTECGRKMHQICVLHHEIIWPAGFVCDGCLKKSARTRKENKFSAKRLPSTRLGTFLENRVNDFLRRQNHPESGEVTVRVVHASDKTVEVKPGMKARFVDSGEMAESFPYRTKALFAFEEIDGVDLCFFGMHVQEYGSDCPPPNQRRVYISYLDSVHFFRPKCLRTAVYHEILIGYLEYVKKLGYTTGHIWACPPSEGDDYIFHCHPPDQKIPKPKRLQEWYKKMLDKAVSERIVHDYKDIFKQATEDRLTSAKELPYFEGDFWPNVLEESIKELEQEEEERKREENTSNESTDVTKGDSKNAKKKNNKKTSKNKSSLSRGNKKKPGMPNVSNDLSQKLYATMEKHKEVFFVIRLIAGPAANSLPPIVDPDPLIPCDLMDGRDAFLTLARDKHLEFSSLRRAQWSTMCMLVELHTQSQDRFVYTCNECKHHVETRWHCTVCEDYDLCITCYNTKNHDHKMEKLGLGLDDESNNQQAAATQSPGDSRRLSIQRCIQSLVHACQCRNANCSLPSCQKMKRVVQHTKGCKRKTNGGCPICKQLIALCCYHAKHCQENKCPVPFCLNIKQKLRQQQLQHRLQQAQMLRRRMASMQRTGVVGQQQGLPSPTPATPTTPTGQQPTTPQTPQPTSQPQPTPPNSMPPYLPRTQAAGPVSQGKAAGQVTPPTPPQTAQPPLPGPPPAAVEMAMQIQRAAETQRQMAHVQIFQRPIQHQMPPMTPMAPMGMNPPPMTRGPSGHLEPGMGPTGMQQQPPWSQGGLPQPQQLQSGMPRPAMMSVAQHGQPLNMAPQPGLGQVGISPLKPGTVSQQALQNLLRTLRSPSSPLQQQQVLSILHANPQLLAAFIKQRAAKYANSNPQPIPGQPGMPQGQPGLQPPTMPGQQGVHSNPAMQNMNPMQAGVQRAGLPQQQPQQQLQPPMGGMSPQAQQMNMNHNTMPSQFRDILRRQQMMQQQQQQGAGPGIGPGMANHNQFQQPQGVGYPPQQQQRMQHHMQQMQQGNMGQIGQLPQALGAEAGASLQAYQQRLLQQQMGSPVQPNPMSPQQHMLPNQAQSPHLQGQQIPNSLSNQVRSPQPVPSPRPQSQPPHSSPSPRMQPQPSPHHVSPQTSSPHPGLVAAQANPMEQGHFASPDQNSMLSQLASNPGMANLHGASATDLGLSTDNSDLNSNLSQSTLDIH

Tests used:
Flag-tagged Elk1 = molecular target: T1, Flag-tagged Elk1 (UniProt P19419); experiment: co-IP; exogenous Co-IP: lysates of HepG2 and Hep3B cells expressing His-tagged P300 and Flag-tagged Elk1 (or only His-tagged P300); lysis buffer 1% NP-40, 0.5% sodium deoxycholate, 0.1% SDS; IP with anti-Flag antibody overnight at 4 °C, protein A/G plus-agarose beads; blot with anti-His antibody
T1 sequence: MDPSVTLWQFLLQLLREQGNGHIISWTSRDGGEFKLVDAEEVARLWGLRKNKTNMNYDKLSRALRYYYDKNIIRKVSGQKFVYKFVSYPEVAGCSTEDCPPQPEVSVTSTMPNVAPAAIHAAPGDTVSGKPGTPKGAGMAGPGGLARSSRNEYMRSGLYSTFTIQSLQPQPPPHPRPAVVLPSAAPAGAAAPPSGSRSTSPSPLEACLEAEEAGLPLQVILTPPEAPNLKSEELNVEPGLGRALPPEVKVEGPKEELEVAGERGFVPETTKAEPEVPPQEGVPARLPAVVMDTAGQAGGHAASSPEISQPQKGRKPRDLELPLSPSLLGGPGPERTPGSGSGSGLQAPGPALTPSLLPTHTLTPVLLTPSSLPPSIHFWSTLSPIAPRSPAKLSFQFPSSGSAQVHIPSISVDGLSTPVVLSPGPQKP

[1] = molecular target: T2, Elk1 (endogenous) (human (endogenous in HepG2 and Hep3B)) (UniProt P19419); experiment: co-IP; endogenous Co-IP in hepatoma cells; Input (10% total protein) as positive control, proteins precipitated by IgG as negative control; precipitating antibody not told
T2 sequence: T1 sequence

Row | binding (Flag-tagged Elk1) | binding [1] | Substance
1 | binds |  | His-tagged P300 (from UniProt Q09472 1-2414)
2 |  | binds | P300 (endogenous) (from UniProt Q09472 1-2414)
